PubChem BioAssay AID1224830 – NIAID, 2016
This is one part, drawn at random, of about 18,000 reagents tested. About 2,900 of all reagents (16%) count as active. 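Calls are made per well; low scores hint the gene aids the LPS response, high scores that it dampens it.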 Repeated entries: four replicate wells of each siRNA pool. Reagent sequences are not shown.

Assay: 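Host factors that control LPS-induced TNF expression in human macrophages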 (primary screen)
System: human THP-1 monocytic leukaemia cells, TNF dual-luciferase reporter clone, PMA-differentiated to macrophage-like cells
Reagent: siRNA pool against human genes, 50 nM
Timing: LPS for 4 h, given about 3 days after siRNA transfection
Challenge: bacterial LPS (TLR4 ligand), 10 ng/ml
Read-out: 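TNF firefly reporter luminescence divided by renilla, normalised to the plate median, then turned into a robust z-score for each replicate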
Direction: TNF reporter robust z-score: higher = stronger TNF reporter response to LPS
Active means: 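a well is active when its z-score exceeds 2.8 or falls below -1.5; control wells carry no call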

gene symbol	TNF reporter robust z-score	outcome
RAB3GAP2 (RAB3 GTPase activating non-catalytic protein subunit 2)	0.26	inactive
RAB3GAP2 (RAB3 GTPase activating non-catalytic protein subunit 2)	0.61	inactive
RAB3GAP2 (RAB3 GTPase activating non-catalytic protein subunit 2)	-1.26	inactive
RAB3GAP2 (RAB3 GTPase activating non-catalytic protein subunit 2)	0.04	inactive
FBXL5 (F-box and leucine rich repeat protein 5)	0.07	inactive
FBXL5 (F-box and leucine rich repeat protein 5)	-0.73	inactive
FBXL5 (F-box and leucine rich repeat protein 5)	2.62	inactive
FBXL5 (F-box and leucine rich repeat protein 5)	-0.18	inactive
FERMT3 (FERM domain containing kindlin 3)	-0.04	inactive
FERMT3 (FERM domain containing kindlin 3)	-0.25	inactive
FERMT3 (FERM domain containing kindlin 3)	-0.47	inactive
FERMT3 (FERM domain containing kindlin 3)	-0.76	inactive
LMOD1 (leiomodin 1)	-0.18	inactive
LMOD1 (leiomodin 1)	-0.26	inactive
LMOD1 (leiomodin 1)	0.59	inactive
LMOD1 (leiomodin 1)	-0.76	inactive
TMEM102 (transmembrane protein 102)	-0.58	inactive
TMEM102 (transmembrane protein 102)	-0.23	inactive
TMEM102 (transmembrane protein 102)	0.05	inactive
TMEM102 (transmembrane protein 102)	-0.97	inactive
PTPRS (protein tyrosine phosphatase receptor type S)	-1.37	inactive
PTPRS (protein tyrosine phosphatase receptor type S)	-1.43	inactive
PTPRS (protein tyrosine phosphatase receptor type S)	-1.2	inactive
PTPRS (protein tyrosine phosphatase receptor type S)	-0.92	inactive
CTU2 (cytosolic thiouridylase subunit 2)	-0.94	inactive
CTU2 (cytosolic thiouridylase subunit 2)	0	inactive
CTU2 (cytosolic thiouridylase subunit 2)	0.19	inactive
CTU2 (cytosolic thiouridylase subunit 2)	0.44	inactive
RFX6 (regulatory factor X6)	0.35	inactive
RFX6 (regulatory factor X6)	0.94	inactive
RFX6 (regulatory factor X6)	0.83	inactive
RFX6 (regulatory factor X6)	0.6	inactive
PRSS1 (serine protease 1)	0.02	inactive
PRSS1 (serine protease 1)	0.37	inactive
PRSS1 (serine protease 1)	0.25	inactive
PRSS1 (serine protease 1)	0.66	inactive
PLEKHG6 (pleckstrin homology and RhoGEF domain containing G6)	-0.88	inactive
PLEKHG6 (pleckstrin homology and RhoGEF domain containing G6)	-0.65	inactive
PLEKHG6 (pleckstrin homology and RhoGEF domain containing G6)	-0.34	inactive

10 entries already listed, ordered by “TNF reporter robust z-score”, highest first.
gene symbol	TNF reporter robust z-score	outcome
RFX6 (regulatory factor X6)	0.94	inactive
RFX6 (regulatory factor X6)	0.83	inactive
RFX6 (regulatory factor X6)	0.6	inactive
CTU2 (cytosolic thiouridylase subunit 2)	0.44	inactive
PRSS1 (serine protease 1)	0.37	inactive
RFX6 (regulatory factor X6)	0.35	inactive
PRSS1 (serine protease 1)	0.25	inactive
CTU2 (cytosolic thiouridylase subunit 2)	0.19	inactive
PRSS1 (serine protease 1)	0.02	inactive
CTU2 (cytosolic thiouridylase subunit 2)	0	inactive

The results go on:
gene symbol	TNF reporter robust z-score	outcome
TEX9 (testis expressed 9)	-0.27	inactive
TEX9 (testis expressed 9)	0.15	inactive
TEX9 (testis expressed 9)	0.01	inactive
TEX9 (testis expressed 9)	1.33	inactive
PATJ (PATJ crumbs cell polarity complex component)	-0.48	inactive
PATJ (PATJ crumbs cell polarity complex component)	-0.04	inactive
PATJ (PATJ crumbs cell polarity complex component)	-0.59	inactive
OR6B3 (olfactory receptor family 6 subfamily B member 3)	-0.38	inactive
OR6B3 (olfactory receptor family 6 subfamily B member 3)	0	inactive
OR6B3 (olfactory receptor family 6 subfamily B member 3)	0.11	inactive
OR6B3 (olfactory receptor family 6 subfamily B member 3)	0.56	inactive
CNOT7 (CCR4-NOT transcription complex subunit 7)	-0.34	inactive
CNOT7 (CCR4-NOT transcription complex subunit 7)	0	inactive
CNOT7 (CCR4-NOT transcription complex subunit 7)	-0.74	inactive
CNOT7 (CCR4-NOT transcription complex subunit 7)	-0.05	inactive
CDK5R2 (cyclin dependent kinase 5 regulatory subunit 2)	-1.07	inactive
CDK5R2 (cyclin dependent kinase 5 regulatory subunit 2)	-1.14	inactive
CDK5R2 (cyclin dependent kinase 5 regulatory subunit 2)	-1	inactive
CDK5R2 (cyclin dependent kinase 5 regulatory subunit 2)	-0.69	inactive
LRRC52 (leucine rich repeat containing 52)	-0.92	inactive
LRRC52 (leucine rich repeat containing 52)	-0.94	inactive
LRRC52 (leucine rich repeat containing 52)	-0.69	inactive
LRRC52 (leucine rich repeat containing 52)	-0.68	inactive
SPRR4 (small proline rich protein 4)	-0.84	inactive
SPRR4 (small proline rich protein 4)	0.2	inactive
SPRR4 (small proline rich protein 4)	0.32	inactive
SPRR4 (small proline rich protein 4)	1.35	inactive
IL17RE (interleukin 17 receptor E)	-0.22	inactive
IL17RE (interleukin 17 receptor E)	0.54	inactive
IL17RE (interleukin 17 receptor E)	0.65	inactive
IL17RE (interleukin 17 receptor E)	1.55	inactive
CYP1A2 (cytochrome P450 family 1 subfamily A member 2)	1.01	inactive
CYP1A2 (cytochrome P450 family 1 subfamily A member 2)	0	inactive
CYP1A2 (cytochrome P450 family 1 subfamily A member 2)	-0.02	inactive
CYP1A2 (cytochrome P450 family 1 subfamily A member 2)	0.11	inactive
CABIN1 (calcineurin binding protein 1)	-1.15	inactive
CABIN1 (calcineurin binding protein 1)	-0.3	inactive
CABIN1 (calcineurin binding protein 1)	-0.15	inactive
CABIN1 (calcineurin binding protein 1)	-0.53	inactive
